Measured values from the supplement of paper PMC10060354, “Discovery of a small molecule ligand of FRS2 that inhibits invasion and tumor growth” (Cellular Oncology, 2022).

Sequences of proteins named here, by UniProt entry; tags and fusion partners are left off. A change or cut given only in a name is not applied to a line headed by its entry.
UniProt Q5QJE6: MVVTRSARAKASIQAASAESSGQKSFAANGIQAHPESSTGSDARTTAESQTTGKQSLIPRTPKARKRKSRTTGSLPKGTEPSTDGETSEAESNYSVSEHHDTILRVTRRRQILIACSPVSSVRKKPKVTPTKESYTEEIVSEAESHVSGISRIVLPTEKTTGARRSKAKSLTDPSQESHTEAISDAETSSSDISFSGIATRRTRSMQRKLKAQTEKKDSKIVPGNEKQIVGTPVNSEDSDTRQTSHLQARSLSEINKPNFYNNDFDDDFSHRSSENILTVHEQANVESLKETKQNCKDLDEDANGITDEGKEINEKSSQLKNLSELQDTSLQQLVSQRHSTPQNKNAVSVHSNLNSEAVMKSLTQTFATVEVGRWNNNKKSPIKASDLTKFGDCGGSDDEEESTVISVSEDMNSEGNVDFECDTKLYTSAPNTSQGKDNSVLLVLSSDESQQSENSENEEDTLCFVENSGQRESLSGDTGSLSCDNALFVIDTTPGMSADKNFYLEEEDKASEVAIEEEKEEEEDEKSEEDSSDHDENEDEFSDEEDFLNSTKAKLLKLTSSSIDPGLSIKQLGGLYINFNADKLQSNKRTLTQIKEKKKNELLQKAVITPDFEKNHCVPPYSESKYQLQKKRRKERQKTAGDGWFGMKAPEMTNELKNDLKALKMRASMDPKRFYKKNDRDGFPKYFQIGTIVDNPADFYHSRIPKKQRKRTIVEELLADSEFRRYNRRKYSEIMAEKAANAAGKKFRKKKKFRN
UniProt Q92604: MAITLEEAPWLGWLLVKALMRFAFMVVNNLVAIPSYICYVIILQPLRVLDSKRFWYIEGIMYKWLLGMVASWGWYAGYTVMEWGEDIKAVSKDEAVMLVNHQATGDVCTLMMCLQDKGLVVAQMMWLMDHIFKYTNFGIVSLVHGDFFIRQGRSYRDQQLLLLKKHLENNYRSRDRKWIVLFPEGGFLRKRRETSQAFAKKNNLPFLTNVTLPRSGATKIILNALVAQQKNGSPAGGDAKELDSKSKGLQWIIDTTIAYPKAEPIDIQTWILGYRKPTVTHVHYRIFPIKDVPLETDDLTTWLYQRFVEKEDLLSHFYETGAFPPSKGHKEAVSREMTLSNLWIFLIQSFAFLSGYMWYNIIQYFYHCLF
UniProt O00468: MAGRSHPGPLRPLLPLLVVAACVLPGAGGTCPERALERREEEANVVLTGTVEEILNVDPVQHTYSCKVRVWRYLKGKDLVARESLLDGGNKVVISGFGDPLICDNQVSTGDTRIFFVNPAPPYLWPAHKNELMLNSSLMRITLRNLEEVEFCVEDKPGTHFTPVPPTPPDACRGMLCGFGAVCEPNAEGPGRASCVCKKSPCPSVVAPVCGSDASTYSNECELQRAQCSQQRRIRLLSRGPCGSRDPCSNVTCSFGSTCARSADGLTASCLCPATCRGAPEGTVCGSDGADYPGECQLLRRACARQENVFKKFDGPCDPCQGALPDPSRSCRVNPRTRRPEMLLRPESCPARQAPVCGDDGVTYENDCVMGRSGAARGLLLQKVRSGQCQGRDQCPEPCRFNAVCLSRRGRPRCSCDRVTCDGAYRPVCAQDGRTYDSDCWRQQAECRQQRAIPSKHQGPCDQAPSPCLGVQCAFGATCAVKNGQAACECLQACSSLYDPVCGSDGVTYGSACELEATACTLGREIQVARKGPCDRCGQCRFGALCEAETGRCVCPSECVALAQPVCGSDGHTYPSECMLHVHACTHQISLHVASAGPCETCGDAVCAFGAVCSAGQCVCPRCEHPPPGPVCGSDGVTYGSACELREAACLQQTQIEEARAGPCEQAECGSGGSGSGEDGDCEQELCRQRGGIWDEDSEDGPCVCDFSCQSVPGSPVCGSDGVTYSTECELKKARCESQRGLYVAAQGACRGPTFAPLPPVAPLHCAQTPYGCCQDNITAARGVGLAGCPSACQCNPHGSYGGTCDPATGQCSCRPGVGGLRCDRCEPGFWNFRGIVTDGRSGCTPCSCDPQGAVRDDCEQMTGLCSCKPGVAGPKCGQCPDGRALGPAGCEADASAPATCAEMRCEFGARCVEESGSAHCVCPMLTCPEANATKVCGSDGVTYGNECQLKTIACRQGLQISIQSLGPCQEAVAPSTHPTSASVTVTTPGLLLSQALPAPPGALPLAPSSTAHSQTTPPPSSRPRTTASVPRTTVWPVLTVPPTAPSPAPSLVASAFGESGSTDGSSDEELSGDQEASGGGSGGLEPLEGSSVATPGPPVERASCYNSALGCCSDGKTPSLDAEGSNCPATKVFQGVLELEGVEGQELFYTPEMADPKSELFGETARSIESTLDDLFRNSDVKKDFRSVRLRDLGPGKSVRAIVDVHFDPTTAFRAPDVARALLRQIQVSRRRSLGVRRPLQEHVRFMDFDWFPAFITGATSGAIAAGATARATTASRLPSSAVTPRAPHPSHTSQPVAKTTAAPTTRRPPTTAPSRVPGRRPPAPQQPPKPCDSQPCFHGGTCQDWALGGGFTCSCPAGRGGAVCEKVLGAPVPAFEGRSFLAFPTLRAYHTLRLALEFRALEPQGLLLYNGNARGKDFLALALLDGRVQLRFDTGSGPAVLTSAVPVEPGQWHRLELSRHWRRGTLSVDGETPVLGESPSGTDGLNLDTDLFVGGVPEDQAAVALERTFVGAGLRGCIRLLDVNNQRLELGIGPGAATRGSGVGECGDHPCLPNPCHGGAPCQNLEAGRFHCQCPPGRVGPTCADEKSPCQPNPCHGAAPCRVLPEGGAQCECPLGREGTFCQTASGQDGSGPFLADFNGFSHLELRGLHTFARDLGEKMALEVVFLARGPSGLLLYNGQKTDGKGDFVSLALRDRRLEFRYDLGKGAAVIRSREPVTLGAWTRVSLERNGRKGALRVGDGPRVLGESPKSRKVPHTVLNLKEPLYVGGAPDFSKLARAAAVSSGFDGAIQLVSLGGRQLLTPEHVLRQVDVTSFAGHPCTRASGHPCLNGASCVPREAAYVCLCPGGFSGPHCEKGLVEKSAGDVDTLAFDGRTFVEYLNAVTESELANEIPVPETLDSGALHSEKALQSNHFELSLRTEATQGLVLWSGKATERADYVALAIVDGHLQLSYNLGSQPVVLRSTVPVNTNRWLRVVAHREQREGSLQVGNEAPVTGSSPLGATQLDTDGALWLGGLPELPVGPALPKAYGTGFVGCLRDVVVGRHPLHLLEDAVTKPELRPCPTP
UniProt Q16563: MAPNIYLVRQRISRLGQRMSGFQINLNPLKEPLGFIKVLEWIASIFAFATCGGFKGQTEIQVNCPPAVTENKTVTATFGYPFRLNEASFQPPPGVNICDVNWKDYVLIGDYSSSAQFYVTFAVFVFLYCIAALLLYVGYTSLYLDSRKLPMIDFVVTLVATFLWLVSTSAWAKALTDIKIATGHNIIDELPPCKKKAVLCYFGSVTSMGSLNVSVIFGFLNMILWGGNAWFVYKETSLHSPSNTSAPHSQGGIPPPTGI
UniProt O15061: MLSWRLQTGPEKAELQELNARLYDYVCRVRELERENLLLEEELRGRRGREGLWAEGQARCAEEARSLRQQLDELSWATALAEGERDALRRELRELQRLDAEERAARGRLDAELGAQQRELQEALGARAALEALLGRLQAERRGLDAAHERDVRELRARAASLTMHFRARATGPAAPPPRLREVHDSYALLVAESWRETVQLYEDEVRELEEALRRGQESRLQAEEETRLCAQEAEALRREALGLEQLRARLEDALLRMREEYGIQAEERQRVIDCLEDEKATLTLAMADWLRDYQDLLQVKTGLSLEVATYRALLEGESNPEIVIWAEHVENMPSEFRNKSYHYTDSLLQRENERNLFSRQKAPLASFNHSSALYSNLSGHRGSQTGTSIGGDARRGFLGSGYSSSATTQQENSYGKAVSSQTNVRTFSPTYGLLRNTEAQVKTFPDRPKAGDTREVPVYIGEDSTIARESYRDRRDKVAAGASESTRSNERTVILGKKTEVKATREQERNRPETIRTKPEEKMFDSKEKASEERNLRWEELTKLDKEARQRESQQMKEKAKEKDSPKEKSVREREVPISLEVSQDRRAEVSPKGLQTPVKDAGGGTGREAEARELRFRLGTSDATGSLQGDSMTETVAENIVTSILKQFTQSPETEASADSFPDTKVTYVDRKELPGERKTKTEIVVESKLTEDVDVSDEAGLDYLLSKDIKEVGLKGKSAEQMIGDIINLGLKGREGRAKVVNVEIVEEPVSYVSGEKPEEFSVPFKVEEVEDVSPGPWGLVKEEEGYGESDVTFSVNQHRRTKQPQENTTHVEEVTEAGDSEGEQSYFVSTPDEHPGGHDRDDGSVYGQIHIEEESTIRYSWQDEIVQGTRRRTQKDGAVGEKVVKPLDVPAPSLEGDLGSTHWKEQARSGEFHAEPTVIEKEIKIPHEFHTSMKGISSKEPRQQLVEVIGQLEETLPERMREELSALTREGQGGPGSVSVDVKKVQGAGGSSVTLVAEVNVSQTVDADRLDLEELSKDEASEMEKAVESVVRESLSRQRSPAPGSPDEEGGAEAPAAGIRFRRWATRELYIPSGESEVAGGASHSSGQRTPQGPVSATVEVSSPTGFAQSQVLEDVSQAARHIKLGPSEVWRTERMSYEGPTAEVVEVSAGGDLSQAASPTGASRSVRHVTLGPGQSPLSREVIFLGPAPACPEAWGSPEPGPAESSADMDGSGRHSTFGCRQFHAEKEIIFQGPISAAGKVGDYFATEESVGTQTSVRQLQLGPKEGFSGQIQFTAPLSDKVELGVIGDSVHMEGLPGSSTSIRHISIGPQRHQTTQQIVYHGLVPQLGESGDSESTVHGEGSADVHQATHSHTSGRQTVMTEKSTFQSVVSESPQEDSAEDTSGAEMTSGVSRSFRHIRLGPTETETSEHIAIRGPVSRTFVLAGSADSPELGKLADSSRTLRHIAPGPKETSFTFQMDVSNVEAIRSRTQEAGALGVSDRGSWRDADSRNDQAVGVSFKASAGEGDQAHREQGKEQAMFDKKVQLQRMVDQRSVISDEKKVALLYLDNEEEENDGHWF
UniProt Q13838, whole entry: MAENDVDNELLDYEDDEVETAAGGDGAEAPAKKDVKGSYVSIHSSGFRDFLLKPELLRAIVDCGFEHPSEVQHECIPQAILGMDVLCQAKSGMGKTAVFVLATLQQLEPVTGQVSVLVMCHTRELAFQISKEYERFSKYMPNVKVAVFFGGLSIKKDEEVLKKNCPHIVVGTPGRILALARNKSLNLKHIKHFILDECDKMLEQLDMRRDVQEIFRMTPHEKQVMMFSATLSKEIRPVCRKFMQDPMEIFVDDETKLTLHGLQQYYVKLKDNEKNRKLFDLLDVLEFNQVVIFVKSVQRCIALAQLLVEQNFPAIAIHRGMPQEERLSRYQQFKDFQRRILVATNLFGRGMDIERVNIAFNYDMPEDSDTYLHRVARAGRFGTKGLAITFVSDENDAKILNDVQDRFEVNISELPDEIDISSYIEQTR
UniProt P22061: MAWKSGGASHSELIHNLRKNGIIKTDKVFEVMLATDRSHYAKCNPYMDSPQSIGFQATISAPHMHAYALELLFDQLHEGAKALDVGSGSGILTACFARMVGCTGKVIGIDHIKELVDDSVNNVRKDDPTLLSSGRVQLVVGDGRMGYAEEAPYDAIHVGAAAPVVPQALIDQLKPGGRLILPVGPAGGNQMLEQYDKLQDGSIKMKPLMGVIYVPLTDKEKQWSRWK
UniProt Q9Y639: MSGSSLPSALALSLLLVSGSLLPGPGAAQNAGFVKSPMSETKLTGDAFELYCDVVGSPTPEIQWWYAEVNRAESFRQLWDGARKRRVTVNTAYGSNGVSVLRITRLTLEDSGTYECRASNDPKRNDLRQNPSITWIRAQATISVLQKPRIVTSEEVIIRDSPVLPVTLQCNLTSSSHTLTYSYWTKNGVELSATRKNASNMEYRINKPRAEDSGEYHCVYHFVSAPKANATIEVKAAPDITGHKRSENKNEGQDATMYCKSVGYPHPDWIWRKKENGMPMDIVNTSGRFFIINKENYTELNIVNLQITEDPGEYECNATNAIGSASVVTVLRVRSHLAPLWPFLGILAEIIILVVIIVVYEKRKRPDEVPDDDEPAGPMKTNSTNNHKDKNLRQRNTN
UniProt Q9BXK5, whole entry: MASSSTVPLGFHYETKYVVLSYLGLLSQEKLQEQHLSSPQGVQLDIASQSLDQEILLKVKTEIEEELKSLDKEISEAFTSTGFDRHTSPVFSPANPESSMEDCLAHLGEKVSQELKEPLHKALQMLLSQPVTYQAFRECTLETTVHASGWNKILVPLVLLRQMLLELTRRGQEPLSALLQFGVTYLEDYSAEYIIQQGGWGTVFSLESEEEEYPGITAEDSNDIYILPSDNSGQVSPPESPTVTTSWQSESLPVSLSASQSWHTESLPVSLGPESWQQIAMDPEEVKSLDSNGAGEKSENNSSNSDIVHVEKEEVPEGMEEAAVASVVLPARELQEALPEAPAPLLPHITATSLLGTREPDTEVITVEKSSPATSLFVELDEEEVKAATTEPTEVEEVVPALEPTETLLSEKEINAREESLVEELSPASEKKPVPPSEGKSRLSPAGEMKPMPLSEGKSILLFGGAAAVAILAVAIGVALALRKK

Compound: [O-][N+](C(C1=C(C(O)=C2)NC(C(C=C3)=CC=C3Cl)C4C1C=CC4)=C2Cl)=O
Test: melting temperature shift (compound 7 minus DMSO); higher = compound stabilises the protein
Conditions: 10 µM
Protocol: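 Thermal proteome profiling (TMT mass spectrometry) in intact DAOY medulloblastoma cells or DAOY lysates treated with 10 µM compound 7 or DMSO, heated at 10 temperatures from 40.5 to 73.8 °C for 3 min. Melting curves were fitted with the Bioconductor TPP package, and the melting point difference between compound and vehicle is reported per protein (single curve per condition).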

[1] = system: DAOY cell lysate, treatment time: 20 min, 4 °C
[2] = system: intact DAOY cells, treatment time: 90 min, 37 °C

Target	melting temperature shift [1] [°C]	melting temperature shift [2] [°C]
GMFB (UniProt P60983)	-0.0803	-1.27
UniProt O43423	–	0.363
CBX1 (UniProt P83916)	-0.32	0.776
UTRN (UniProt P46939)	0.375	0.259
CDKN2AIP (UniProt Q9NXV6)	0.909	0.0566
DDI2 (UniProt Q5TDH0)	-0.755	-0.712
UniProt P48995	–	-2.24
TOMM20 (UniProt Q15388)	1.76	0.947
EOGT (UniProt Q5NDL2)	0.516	-0.433
DNAJC10 (UniProt Q8IXB1)	0.788	0.674
UniProt Q96DT5	-2.98	–
SOAT1 (UniProt P35610)	1.03	0.218
POLR1C (UniProt O15160)	1.12	1.3
SFPQ (UniProt P23246)	1.03	-0.0248
DNTTIP2 (UniProt Q5QJE6)	1.21	0.779
UniProt Q9BXV9	–	2.01
KEAP1 (UniProt Q14145)	-0.395	-0.648
PANK2 (UniProt Q9BZ23)	-4.26	–
FCHSD2 (UniProt O94868)	0.607	–
SLC25A3 (UniProt Q00325)	1.72	-0.485
LPGAT1 (UniProt Q92604)	0.737	0.317
UniProt P38432	0.0215	–

Target	melting temperature shift [1] [°C]	melting temperature shift [2] [°C]
RPS25 (UniProt P62851)	0.725	-0.93
UniProt Q6VEQ5	-0.503	1.4
AGRN (UniProt O00468)	-0.385	0.204
RFT1 (UniProt Q96AA3)	4.98	-2.28
KIF23 (UniProt Q02241)	-0.739	-1.67
UniProt Q9UJV8	–	3.07
SMARCD2 (UniProt Q92925)	-2.98	–
DIEXF (UniProt Q68CQ4)	-0.302	-0.301
ATAD3B (UniProt Q5T9A4)	2.01	-0.203
WEE1 (UniProt P30291)	-0.76	–
VEZT (UniProt Q9HBM0)	0.423	-0.0848
PDCD4 (UniProt Q53EL6)	-0.563	-1.91
FAM207A (UniProt Q9NSI2)	-0.333	0.991
MRPL47 (UniProt Q9HD33)	1.86	-0.987
RNF167 (UniProt Q9H6Y7)	2.23	1.41
MIF (UniProt P14174)	-0.204	-1.55
GOLT1B (UniProt Q9Y3E0)	1.71	–
SRM (UniProt P19623)	-0.0548	-1.14
SERPINH1 (UniProt P50454)	0.581	0.513
ERCC1 (UniProt P07992)	0.741	–
UniProt Q8NGA1	-0.941	–
MRPL23 (UniProt Q16540)	-2.36	0.492

Target	melting temperature shift [1] [°C]	melting temperature shift [2] [°C]
NOC2L (UniProt Q9Y3T9)	0.0147	0.97
DNAJB11 (UniProt Q9UBS4)	1.34	0.48
UniProt Q92844	-9.1	–
MAP1S (UniProt Q66K74)	0.407	-0.124
UniProt O95864	2.12	-1.29
UniProt Q02750	-0.189	-1.19
YWHAB (UniProt P31946)	-0.698	0.584
NDUFB4 (UniProt O95168)	1.76	-0.578
UniProt P27361	0.126	-0.204
NUP214 (UniProt P35658)	-0.181	-0.0457
SYPL1 (UniProt Q16563)	0.348	–
SRPRB (UniProt Q9Y5M8)	1.1	-1.34
UniProt O15061	0.625	–
FAU (UniProt P62861)	1.71	1.44
SPTLC2 (UniProt O15270)	1.78	-0.152
GPAT4 (UniProt Q86UL3)	2	-0.791
CAMK1D (UniProt Q8IU85)	-0.0187	-0.58
LIMS1 (UniProt P48059)	-1.26	0.0868
ATP1A1 (UniProt P05023)	1.78	-0.286
NSFL1C (UniProt Q9UNZ2)	-0.952	-0.266
DDX39B (UniProt Q13838)	0.19	0.165
PLEKHO2 (UniProt Q8TD55)	-0.945	-0.038

Target	melting temperature shift [1] [°C]	melting temperature shift [2] [°C]
WDR26 (UniProt Q9H7D7)	-0.754	0.0144
RMDN1 (UniProt Q96DB5)	-0.487	-0.163
GABPA (UniProt Q06546)	-1.19	-0.678
PCMT1 (UniProt P22061)	-0.608	-0.274
PON2 (UniProt Q15165)	1.04	-0.599
ARMC8 (UniProt Q8IUR7)	-0.71	0.118
NPTN (UniProt Q9Y639)	1.37	–
PRPF39 (UniProt Q86UA1)	0.221	-2.91
AIMP1 (UniProt Q12904)	-0.755	-0.647
PABPC1 (UniProt P11940)	0.122	0.0605
AGO1 (UniProt Q9UL18)	3.26	–
UniProt P59780	-0.288	-0.928
PEX5 (UniProt P50542)	7.94	–
UniProt Q99743	0.115	–
RAB27A (UniProt P51159)	1.43	-1.66
BCL2L13 (UniProt Q9BXK5)	0.178	0.381
TMEM57 (UniProt Q8N5G2)	-0.196	-0.657
AARS2 (UniProt Q5JTZ9)	1.52	-2.29
CPM (UniProt P14384)	–	1.13
FOXK2 (UniProt Q01167)	1.81	-0.582
PPOX (UniProt P50336)	–	0.502

Three consecutive entries out of the list so far, quoted:
Target	melting temperature shift [1] [°C]	melting temperature shift [2] [°C]
PON2 (UniProt Q15165)	1.04	-0.599
ARMC8 (UniProt Q8IUR7)	-0.71	0.118
NPTN (UniProt Q9Y639)	1.37	–

Repeats are few or missing, and single values can be far off.
